Test results reported in PubChem BioAssay AID2685 (National Center for Advancing Translational Sciences (NCATS), 2010).
The list shows a part of the results. Further columns of the screen follow, without active or inactive calls. The list favours compounds with an active or inconclusive main result. Words in brackets tell the shape of the fitted curve; partial curves, single points and poor fits give uncertain potencies.

Assay: qHTS Assay for Lipid Storage Modulators in Drosophila S3 Cells;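 for cell number change: cells counted by Cell Tracker Red CMTPX staining in the red channel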
Settings: BODIPY lipid droplet fluorescence, 18-24 h; for cell number change: measured here: cell count max response, cells fed with added oleic acid
Outline: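 Drosophila S3 cells got compounds at several concentrations plus oleic acid (400 uM solution). Laser-scanning cytometry with 488 nm excitation read lipid droplets at 500-530 nm and cells at 575-640 nm. Percent activity was relative to 20 uM Triacsin C.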

[1] = measured here: lipid fluorescence (Fed channel) AC50, cells fed with added oleic acid
[2] = measured here: cell number channel AC50, cells fed with added oleic acid

## Cc1ccccc1C(=O)NC(NCc1ccco1)C(Cl)(Cl)Cl (configuration not stated)
  cell number change: -1.53%

## O=C(CCNS(=O)(=O)c1c(Cl)cccc1Cl)N1CCCC1
  cell number change: -20.5%
[1]
  AC50: 0.259 µM [falling, full curve, poor fit]

## COc1ccc(CCC(=O)Nc2ccc(C(=O)c3ccncc3)cc2)cc1
  cell number change: -15.7%
[1]
  AC50: 0.291 µM [falling, partial curve, poor fit]

## CC1CCN(C(=O)c2ccccc2NC(=O)c2cccs2)CC1
  cell number change: -35.1%
[2]
  AC50: 29.1 µM [falling, partial curve, poor fit]
[1]
  AC50: 29.1 µM [rising, single point]

## CC(=O)Nc1ccc(C(=O)Nc2ccc(S(=O)(=O)Nc3nccc(C)n3)cc2)cc1
  cell number change: 28.5%
[1]
  AC50: 29.1 µM [rising, single point]

## O=C(COc1ccc(S(=O)(=O)N2CCOCC2)cc1Cl)N1CCOCC1
  cell number change: 14.1%

## CC(C)(C)NC(=O)CSc1nc(O)cc(=O)n1-c1ccccc1
  cell number change: -12.2%

## CCOc1ccc(S(=O)(=O)Nc2ccc(S(=O)(=O)N3CCOCC3)cc2)cc1
  cell number change: -21.2%

## Cn1c2cc(Br)sc2c2cnn(Cc3c(F)cccc3Cl)c(=O)c21
  cell number change: 35.5%
[2]
  AC50: 32.6 µM [rising, single point]
[1]
  AC50: 0.82 µM [rising, partial curve]

## COc1ccc(-n2nnnc2SC(C)C(=O)NC2CCCC2)cc1 (configuration not stated)
  cell number change: 2.44%
[1]
  AC50: 0.0326 µM [falling, full curve, poor fit]

## Cc1nnsc1NC(=O)OCCCl
  cell number change: -18.1%
[1]
  AC50: 6.51 µM [falling, single point]

## COC(=O)c1ccccc1S(=O)(=O)Nc1ccc(OC)nc1
  cell number change: 22.7%

## O=C(Oc1ccc2ccc(OC(=O)N3CCCCCC3)cc2c1)N1CCCCCC1
  cell number change: -11.2%
[2]
  AC50: 1.64 µM [rising, partial curve]
[1]
  AC50: 2.06 µM [rising, partial curve]

## O/N=C/c1ccccc1OCc1ccccc1Cl
  cell number change: -25.9%
[1]
  AC50: 20.6 µM [falling, single point]

## COc1ccc(CCN(C)CC(O)c2ccccc2)cc1OC (configuration not stated)
  cell number change: 2.73%

## COc1ccccc1CCNC(=O)CCn1nc(C)c2c(C)n(-c3ccccc3)nc2c1=O
[1]
  AC50: 6.51 µM [falling, single point]

## COc1cccc(CCNC(=O)c2ccc(OC)c(OC3CCN(C(C)C)CC3)c2)c1
  cell number change: 8.5%
[2]
  AC50: 0.0146 µM [rising, full curve, poor fit]

## Cc1ccc(-c2csc(-c3ccncc3)n2)cc1
  cell number change: 2.07%
[2]
  AC50: 0.0259 µM [rising, full curve, poor fit]

## CCOC(=O)Nc1ccc(NC(=O)c2ccccc2F)cc1
  cell number change: 133%
[2]
  AC50: 23.1 µM [rising, single point]
[1]
  AC50: 0.731 µM [falling, single point]

## Cc1ccc(-n2nnnc2-c2cnc(-c3cccnc3)nc2C(F)(F)F)cc1
  cell number change: -32.2%
[1]
  AC50: 6.51 µM [rising, single point]

## O=c1cc(O)c2sc3nc(-c4cccnc4)cc(C(F)(F)F)c3c2[nH]1
  cell number change: 122%
[1]
  AC50: 1.84 µM [rising, partial curve]

## CCOC(=O)N1CCN(C(=O)C(NC(=O)c2ccco2)C(C)C)CC1 (configuration not stated)
  cell number change: 6.99%
[1]
  AC50: 0.00411 µM [rising, full curve, poor fit]

## Cc1cc(Cn2nc(C(=O)NCC3CC3)cc2-c2ccccc2)on1
  cell number change: -39.5%
[2]
  AC50: 29.1 µM [falling, single point]
[1]
  AC50: 29.1 µM [falling, single point]

## Cc1ccccc1Nc1nc(=O)c2cc([N+](=O)[O-])ccc2s1
  cell number change: -19.8%
[1]
  AC50: 29.1 µM [falling, single point]

## O=C(NCCc1cccc(Cl)c1)c1ccc(OC2CCN(Cc3ccccn3)CC2)cc1
  cell number change: 1.16%
[1]
  AC50: 29.1 µM [falling, single point]

## O=C1c2ccccc2C(=O)N1CCCn1nnc(-c2ccc(N3CCOCC3)cc2)n1
  cell number change: 2.16%
[1]
  AC50: 0.00461 µM [rising, partial curve, poor fit]

## CCC(NC(=O)NCc1ccc2c(c1)OCO2)(C(F)(F)F)C(F)(F)F
  cell number change: 16.9%
[1]
  AC50: 6.51 µM [rising, partial curve]

## COc1ccc(N2CCN(CC(=O)Nc3ccccc3C(=O)NCc3ccccc3)CC2)cc1
  cell number change: -4.4%
[1]
  AC50: 6.51 µM [rising, partial curve]

## CN(C(=O)CSc1nnc(C2CC2)n1C)C1CCCc2ccccc21 (configuration not stated)
  cell number change: -14.1%

## CCN(c1ccc(OC)cc1)S(=O)(=O)c1ccc2c(c1)CCN2C(=O)CCC(=O)O
  cell number change: -47.8%
[2]
  AC50: 29.1 µM [falling, single point]

## CC(Oc1ccccc1)C(=O)NC1CC(C)(C)NC(C)(C)C1 (configuration not stated)
  cell number change: -154%
[2]
  AC50: 25.9 µM [falling, partial curve]
[1]
  AC50: 23.1 µM [falling, partial curve]

## Cc1ccc(O)c(-c2cc(-c3cccc(F)c3)n[nH]2)c1
  cell number change: -73.6%
[1]
  AC50: 1.3 µM [falling, full curve]

## Cc1ccc(F)cc1NC(=O)c1c(-c2ccccc2)noc1C
[1]
  AC50: 0.092 µM [rising, full curve, poor fit]

## CCCCOc1ccc(CSc2nnc(C)n2N)cc1[N+](=O)[O-]
  cell number change: 12.7%
[1]
  AC50: 0.13 µM [rising, full curve, poor fit]

## CCN(CCNC(=O)C1CCN(S(=O)(=O)c2cccc3nsnc23)CC1)c1ccccc1
  cell number change: -31.6%
[2]
  AC50: 29.1 µM [falling, single point]

## O=C(CCNS(=O)(=O)c1ccccc1)Nc1ccccc1
  cell number change: 10.4%
[1]
  AC50: 0.651 µM [rising, partial curve, poor fit]

## CCCCCCn1c(SCCCC)nc2c1c(=O)[nH]c(=O)n2C
[1]
  AC50: 6.51 µM [rising, single point]

## COc1ccc(-n2cnnc2SCC(=O)c2cc(C)n(Cc3cccs3)c2C)cc1
  cell number change: -5.45%
[2]
  AC50: 1.46 µM [rising, full curve, poor fit]

## O=C(CS(=O)(=O)c1ccccc1)Nc1ccc(S(=O)(=O)Nc2ccccn2)cc1
  cell number change: -4.22%
[1]
  AC50: 0.146 µM [falling, full curve, poor fit]

## CC(C)Cn1[nH]c2c3c(ccc2c1=O)C(=O)c1ccccc1C3=O
  cell number change: -60.7%
[2]
  AC50: 5.17 µM [falling, full curve]
[1]
  AC50: 4.11 µM [falling, partial curve]

## Cc1cccc(C(=O)NNC(=O)CSc2nnc(C3CC3)n2C)c1
  cell number change: 10.3%

## CC(=O)N1CCC(N(C(=O)Nc2c(F)cccc2F)C(C)C)CC1
  cell number change: 11%
[1]
  AC50: 6.51 µM [rising, single point]

## CCCC(CCC)C(=O)Nc1ccc2c(c1)N(C(=O)CCN1CCN(C)CC1)c1ccccc1CC2
  cell number change: -0.964%
[1]
  AC50: 0.082 µM [falling, full curve, poor fit]

## O=C(C1CC(=O)N(c2ccc(Cl)cc2)C1)N1CCN(Cc2ccc3c(c2)OCO3)CC1 (configuration not stated)
  cell number change: 37.2%
[2]
  AC50: 29.1 µM [rising, single point]
[1]
  AC50: 29.1 µM [falling, single point]

## CN1CCN(S(=O)(=O)c2ccc(SCCOc3ccc(Cl)cc3)nc2)CC1
  cell number change: -26.1%
[1]
  AC50: 29.1 µM [falling, single point]

## O=c1c2c3n(c(=S)nc2[nH]n1-c1ccccc1)CCCCC3
  cell number change: 6.99%
[1]
  AC50: 0.92 µM [falling, full curve, poor fit]

## Oc1c(Br)cc2oc3c(c2c1CNCc1ccccc1)CCCC3
  cell number change: 2.08%
[1]
  AC50: 29.1 µM [rising, single point]

## CC(C)C(C(=O)Nc1nccs1)c1ccc(Cl)cc1 (configuration not stated)
  cell number change: -19%
[1]
  AC50: 1.16 µM [rising, full curve]

## O=C(NC(Cc1ccccc1)C(=O)O)/C(=C/c1ccc(Cl)cc1)NC(=O)c1ccco1 (configuration not stated)
  cell number change: 47.6%
[2]
  AC50: 29.1 µM [rising, single point]

## CCOC(=O)c1c(C)[nH]c(C(=O)COC(=O)/C=C/c2ccc(OC(F)F)cc2)c1C
  cell number change: 0.689%
[2]
  AC50: 2.59 µM [rising, partial curve]

## CC(C)Cc1csc(NC(=O)c2ccc(F)cc2)c1C(=O)O
  cell number change: 51.5%
[2]
  AC50: 1.64 µM [rising, partial curve]
[1]
  AC50: 29.1 µM [rising, single point]

## COc1ccc([N+](=O)[O-])cc1N1C(=O)c2cccnc2C1=O
[1]
  AC50: 0.411 µM [falling, full curve]

## O=C(Cn1nc(-c2cccc(Cl)c2)ccc1=O)Nc1cccnc1
  cell number change: -21.4%
[1]
  AC50: 0.0326 µM [rising, full curve, poor fit]

## COc1cc2c(cc1OC)CN(CC(=O)Nc1ccc(F)cc1)CC2
  cell number change: 5.94%

## O=C(Nc1ccccc1Cl)NC1(C(=O)NCc2ccncc2)CCCCC1
  cell number change: -17.1%

## CC1CN=C2C(C(=O)Nc3ccccc3)=C(O)CC(c3ccccc3)N21 (configuration not stated)
  cell number change: -7.28%

## CCOc1ccc(Br)cc1C1=NN(C(C)=O)C(c2ccc([N+](=O)[O-])s2)O1 (configuration not stated)
  cell number change: 16.7%

## Cc1ccc(C)c(NC(=S)N2CCC(NC(=O)C3CCCCC3)CC2)c1
  cell number change: 5.41%
[1]
  AC50: 6.51 µM [rising, single point]

## CCn1c(CSc2nc3ccccc3s2)nnc1SCC(=O)OC(C)(C)C
  cell number change: -32.5%
[2]
  AC50: 32.6 µM [falling, single point]
[1]
  AC50: 23.1 µM [falling, partial curve]

## c1ccc2c3c([nH]c2c1)-c1[nH]ncc1CC3
  cell number change: -18.6%
[1]
  AC50: 6.51 µM [rising, single point]

## CCn1c2ccccc2c2cc(NC(=O)c3ccc(C)c([N+](=O)[O-])c3)ccc21
  cell number change: 5.39%
[1]
  AC50: 0.517 µM [rising, full curve]

## CC1CCCC(C)N1C(=O)CSc1nnc(C2CCCCC2)o1 (configuration not stated)
  cell number change: -0.453%
